In US20250270180A1, “MEK INHIBITORS AND THERAPEUTIC USES THEREOF” (Immuneering Corporation, priority 2020, published 2025):
Values joined by “and” are separate entries in the source; they are usually repeats but may differ in a detail not shown here. Equal values may be shown once. For some assays here: The name of at least one read-out is uncertain. For some assays here: At least one structure is not confirmed: it was looked up by name or label, or the drawing left a doubt.

Assays:
[1] = tested on: A549 (KRAS G12S) pERK: total ERK; assay: Phospho-ERK screen in A549 (KRAS G12S); format: cell-based; details: 10 μM for 2 hours
Experimental: Materials and Methods: A549 or A375 cells were seeded in 6-well plates at an appropriate seeding density on day 0. On day 2 or 3, after checking the health and confluency of cells, the media was aspirated and replaced with 1 mL media containing a predetermined concentration of compound and incubated for 2 hours. After 2 hours, the media was aspirated, and the cells washed 2 times with cold PBS. Cells were lysed on ice, with 50 uL 1×CST lysis buffer+1 mM PMSF for 5 minutes. After 5 minutes, cells were removed using a scraper and transferred to cold 1.5 mL tubes, and centrifuged for 10 min, 4° C., 14,000×g. Supernatant was gently removed and snap frozen in liquid nitrogen. Protein concentration of the lysate was determined using Bradford Reagent (analyzed using SpectraMax M2E) and diluted to 1 mg/mL or pERK or 1.5 mg/mL for pMEK analysis. Cell lysates were then analyzed for phosphor-ERK/total-ERK levels on a Jess system (ProteinSimple; Cat #JS3346) using the following antibodies: tERK1/2 (CST 4696; 1:50) and pERK1/2 (CST 4377; 1:50). For pMEK/tMEK, the following antibodies were used: tMEK1/2 (CST 4694; 1:15) and pMEK1/2 (CST 9154; 1:400). All dilutions were in Milk-free antibody diluent.
The results of a phospho-ERK Screen in A549 (KRAS G12S) study is described in Table 7, 7A, 7B, and 8 below.

[2] = British Journal of Cancer (2012) 106, 1583-1586; cited from earlier work

| Compound | pERK: total ERK (% relative to vehicle) [1] | muscle gain in patients with cholangiocarcinoma [2] |
| --- | --- | --- |
| Cn1cnc2c(F)c(Nc3ccc(Br)cc3Cl)c(C(=O)NOCCO)cc21 [Reference 1, Selumetinib, reference compound] | 0.48% and 2.40% | – |
| Cn1cnc2c(F)c(Nc3ccc(Br)cc3Cl)c(C(=O)NOCCO)cc21 [Selumetinib] | – | promote muscle gain |
